Reference: US8729271B2, “Glycine transporter inhibiting substances” (Taisho Pharmaceutical Co., Ltd, priority 2010, dated 2014)
Some of these results come from one statement about several compounds together.

Experiment: Membrane permeability experiment (PAMPA Evolution, pION)
Assay type: in vitro ADME
Details: at pH 5 or more, criteria of the pION INC. protocol

Compound: CC(C)N(Cc1ccnc(-c2ccc(OC(F)(F)F)c(F)c2)c1)C(=O)c1cn(C)cn1 [Compound 126]
- membrane permeability (class from membrane permeability coefficient Pe): high

Compound: CC(C)N(Cc1ccnc(-c2ccc3ncccc3c2)c1)C(=O)c1cn(C)cn1 [Compound 127]
- membrane permeability (class from membrane permeability coefficient Pe): high

Compound: CC(C)N(Cc1ccnc(-c2cc(C(F)(F)F)ccc2F)c1)C(=O)c1cn(C)cn1 [Compound 129]
- membrane permeability (class from membrane permeability coefficient Pe): high

Compound: CC(C)N(Cc1ccnc(-c2cnc3ccccc3c2)c1)C(=O)c1cn(C)cn1 [Compound 133]
- membrane permeability (class from membrane permeability coefficient Pe): high

Compound: CC(C)N(Cc1ccnc(-c2cccc(OC(F)F)c2)c1)C(=O)c1cn(C)cn1 [Compound 134]
- membrane permeability (class from membrane permeability coefficient Pe): high

Compound: CC(C)N(Cc1ccnc(-c2cc(F)ccc2Cl)c1)C(=O)c1cn(C)cn1 [Compound 135]
- membrane permeability (class from membrane permeability coefficient Pe): high

Compound: Cc1cn(-c2cc(CN(C(=O)c3cn(C)cn3)C(C)C)ccc2F)cn1 [Compound 143]
- membrane permeability (class from membrane permeability coefficient Pe): high

Compound: Cn1cnc(C(=O)N(Cc2ccc(F)c(-c3cccc(C(F)(F)F)n3)c2)C2CCC2)c1 [Compound 144]
- membrane permeability (class from membrane permeability coefficient Pe): high

Compound: Cn1cnc(C(=O)N(Cc2ccc(F)c(-c3cncc(C(F)(F)F)c3)c2)C2CCC2)c1 [Compound 145]
- membrane permeability (class from membrane permeability coefficient Pe): high

Compound: Cn1cnc(C(=O)N(Cc2ccc(F)c(-c3ccc(F)nc3)c2)C2CCOCC2)c1 [Compound 147]
- membrane permeability (class from membrane permeability coefficient Pe): high

Compound: CC(C)N(Cc1ccnc(-c2ccc(F)c(OC(F)(F)F)c2)c1)C(=O)c1cn(C)cn1 [Compound 149]
- membrane permeability (class from membrane permeability coefficient Pe): high

Compound: Cn1cnc(C(=O)N(Cc2ccc(F)c(-c3ccc4ncccc4c3)c2)C2CCC2)c1 [Compound 150]
- membrane permeability (class from membrane permeability coefficient Pe): high

Compound: Cn1cnc(C(=O)N(Cc2ccc(F)c(-c3cc(C(F)(F)F)ccn3)c2)C2CCC2)c1 [Compound 152]
- membrane permeability (class from membrane permeability coefficient Pe): high

Compound: CC(C)N(Cc1ccc(F)c(-c2cnc3ccccc3c2)c1)C(=O)c1cn(C)cn1 [Compound 154]
- membrane permeability (class from membrane permeability coefficient Pe): high

Compound: Cn1cnc(C(=O)N(Cc2csc(-c3ccc(OC(F)(F)F)cc3)n2)C2CCC2)c1 [Compound 155]
- membrane permeability (class from membrane permeability coefficient Pe): high

Compound: Cn1cnc(C(=O)N(Cc2ccc(F)c(-c3ccc4cccnc4c3)c2)C2CCC2)c1 [Compound 156]
- membrane permeability (class from membrane permeability coefficient Pe): high

Compound: Cn1cnc(C(=O)N(Cc2ccc(F)c(-c3ccc4c(ccn4C)c3)c2)C2CCC2)c1 [Compound 157]
- membrane permeability (class from membrane permeability coefficient Pe): high

Compound: CN(C)c1ccc(-c2cc(CN(C(=O)c3cn(C)cn3)C3CCC3)ccc2F)cn1 [Compound 158]
- membrane permeability (class from membrane permeability coefficient Pe): high

Compound: Cn1cnc(C(=O)N(Cc2ccc(F)c(-c3ccc(N4CCCC4)nc3)c2)C2CCC2)c1 [Compound 161]
- membrane permeability (class from membrane permeability coefficient Pe): high

Compound: Cn1cnc(C(=O)N(Cc2ccnc(-c3ccc(OC(F)(F)F)cc3)c2)C2CCOCC2)c1 [Compound 162]
- membrane permeability (class from membrane permeability coefficient Pe): high

Compound: Cn1cnc(C(=O)N(Cc2ccnc(-c3cccc(OC(F)(F)F)c3)c2)C2CCOCC2)c1 [Compound 163]
- membrane permeability (class from membrane permeability coefficient Pe): high

Compound: Cn1cnc(C(=O)N(Cc2ccnc(-c3ccc(Cl)c(Cl)c3)c2)C2CCOCC2)c1 [Compound 164]
- membrane permeability (class from membrane permeability coefficient Pe): high

Compound: CN(C)c1cc(-c2cc(CN(C(=O)c3cn(C)cn3)C3CCC3)ccc2F)ccn1 [Compound 166]
- membrane permeability (class from membrane permeability coefficient Pe): high

Compound: Cn1cnc(C(=O)N(Cc2ccc(F)c(-c3cnc(C(F)(F)F)cn3)c2)C2CCOCC2)c1 [Compound 167]
- membrane permeability (class from membrane permeability coefficient Pe): high

Compound: Cn1cnc(C(=O)N(Cc2ccc(F)c(-c3ccc4ncccc4c3)c2)C2CCOCC2)c1 [Compound 169]
- membrane permeability (class from membrane permeability coefficient Pe): high

Compound: Cn1cnc(C(=O)N(Cc2ccc(F)c(-c3cnc4ccccc4c3)c2)C2CCOCC2)c1 [Compound 170]
- membrane permeability (class from membrane permeability coefficient Pe): high

Compound: Cn1cnc(C(=O)N(Cc2ccnc(-c3ccc(F)c(F)c3)c2)C2CCC2)c1 [Compound 176]
- membrane permeability (class from membrane permeability coefficient Pe): high

Compound: Cn1cnc(C(=O)N(Cc2ccnc(-c3cc(F)cc(F)c3)c2)C2CCC2)c1 [Compound 177]
- membrane permeability (class from membrane permeability coefficient Pe): high

Compound: Cn1cnc(C(=O)N(Cc2ccnc(-c3ccc(OC(F)F)cc3)c2)C2CCC2)c1 [Compound 178]
- membrane permeability (class from membrane permeability coefficient Pe): high

Compound: Cn1cnc(C(=O)N(Cc2ccnc(-c3cccc(OC(F)F)c3)c2)C2CCC2)c1 [Compound 179]
- membrane permeability (class from membrane permeability coefficient Pe): high

Compound: Cn1cnc(C(=O)N(Cc2csc(-c3ccc(OC(F)(F)F)cc3)n2)C2CCOCC2)c1 [Compound 180]
- membrane permeability (class from membrane permeability coefficient Pe): high

Compound: Cn1cnc(C(=O)N(Cc2nc(-c3ccc(OC(F)(F)F)cc3)cs2)C2CCOCC2)c1 [Compound 181]
- membrane permeability (class from membrane permeability coefficient Pe): high

Compound: Cn1cnc(C(=O)N(Cc2ccnc(-c3ccc(OC(F)(F)F)cc3)c2)C2CCC2)n1 [Compound 187]
- membrane permeability (class from membrane permeability coefficient Pe): high

Compound: Cn1cnc(C(=O)N(Cc2ccnc(-c3cccc(OC(F)(F)F)c3)c2)C2CCC2)n1 [Compound 188]
- membrane permeability (class from membrane permeability coefficient Pe): high

Compound: CCOc1ccc(-c2cc(CN(C(=O)c3cn(C)cn3)C3CCC3)ccn2)cc1 [Compound 189]
- membrane permeability (class from membrane permeability coefficient Pe): high

Compound: Cn1cnc(C(=O)N(Cc2ccnc(-c3cc(F)c(F)cc3F)c2)C2CCC2)c1 [Compound 191]
- membrane permeability (class from membrane permeability coefficient Pe): high

Compound: Cn1cnc(C(=O)N(Cc2ccnc(-c3ccc(OCC(F)(F)F)cc3)c2)C2CCC2)c1 [Compound 195]
- membrane permeability (class from membrane permeability coefficient Pe): high

Compound: COCCN(Cc1ccnc(-c2ccc(OC(F)(F)F)cc2)c1)C(=O)c1cn(C)cn1 [Compound 197]
- membrane permeability (class from membrane permeability coefficient Pe): high

Compound: COCCN(Cc1ccnc(-c2cccc(OC(F)(F)F)c2)c1)C(=O)c1cn(C)cn1 [Compound 198]
- membrane permeability (class from membrane permeability coefficient Pe): high

Compound: CC(C)N(Cc1ccc(F)c(-c2ccc(N(C)C)nc2)c1)C(=O)c1cn(C)cn1 [Compound 204]
- membrane permeability (class from membrane permeability coefficient Pe): high

Compound: Cn1cnc(C(=O)N(Cc2ccc(F)c(-c3ccc(N4CCOCC4)nc3)c2)C2CCC2)c1 [Compound 206]
- membrane permeability (class from membrane permeability coefficient Pe): high

Compound: Cn1cnc(C(=O)N(Cc2ccnc(-c3ccc(OC(F)(F)F)cc3)n2)C2CCC2)c1 [Compound 207]
- membrane permeability (class from membrane permeability coefficient Pe): high

Compound: Cn1cnc(C(=O)N(Cc2ccc(F)c(-c3cc(C(F)(F)F)ncn3)c2)C2CCC2)c1 [Compound 208]
- membrane permeability (class from membrane permeability coefficient Pe): high

Compound: Cn1cnc(C(=O)N(Cc2ccc(F)c(-c3ccnc(C(F)(F)F)n3)c2)C2CCC2)c1 [Compound 209]
- membrane permeability (class from membrane permeability coefficient Pe): high

Compound: Cc1cn2cc(-c3cc(CN(C(=O)c4cn(C)cn4)C4CCC4)ccc3F)ccc2n1 [Compound 211]
- membrane permeability (class from membrane permeability coefficient Pe): high

Compound: Cn1cnc(C(=O)N(Cc2ccnc(-c3ccc(F)c(OC(F)F)c3)c2)C2CCC2)c1 [Compound 213]
- membrane permeability (class from membrane permeability coefficient Pe): high

Compound: Cn1cnc(C(=O)N(Cc2csc(-c3ccc(C(F)(F)F)nc3)n2)C2CCC2)c1 [Compound 214]
- membrane permeability (class from membrane permeability coefficient Pe): high

Compound: Cn1cnc(C(=O)N(Cc2ccc(F)c(-c3nccc(C(F)(F)F)n3)c2)C2CCC2)c1 [Compound 216]
- membrane permeability (class from membrane permeability coefficient Pe): high

Compound: CC(C)N(Cc1ccnc(-c2ccc(SC(F)(F)F)cc2)c1)C(=O)c1cn(C)cn1 [Compound 221]
- membrane permeability (class from membrane permeability coefficient Pe): high

Compound: Cn1cnc(C(=O)N(Cc2ccc(F)c(-c3ccc(OC(F)(F)F)cn3)c2)C2CCC2)c1 [Compound 223]
- membrane permeability (class from membrane permeability coefficient Pe): high
